Assay results reported in PubChem BioAssay AID743255 (National Center for Advancing Translational Sciences (NCATS), 2014).
About 910 (0.23%) of roughly 390,000 compounds were called active. Inconclusive results, whose numbers are uncertain, are shown with a selection of clear calls. The call rests on the fitted dose curve; in most records, active means well fitted inhibition curve with a large enough effect; inconclusive means small, poorly fitted or top-dose-only effect; inactive means no such curve, though single readings can be large or run the other way. A potency beside an inconclusive call is a rough fit, not a confirmed value. Residues, ends and D or L forms follow the SMILES beside them.

Sequences of proteins named here, by UniProt entry; tags and fusion partners are left off. A change or cut given only in a name is not applied to a line headed by its entry.
UniProt O94782: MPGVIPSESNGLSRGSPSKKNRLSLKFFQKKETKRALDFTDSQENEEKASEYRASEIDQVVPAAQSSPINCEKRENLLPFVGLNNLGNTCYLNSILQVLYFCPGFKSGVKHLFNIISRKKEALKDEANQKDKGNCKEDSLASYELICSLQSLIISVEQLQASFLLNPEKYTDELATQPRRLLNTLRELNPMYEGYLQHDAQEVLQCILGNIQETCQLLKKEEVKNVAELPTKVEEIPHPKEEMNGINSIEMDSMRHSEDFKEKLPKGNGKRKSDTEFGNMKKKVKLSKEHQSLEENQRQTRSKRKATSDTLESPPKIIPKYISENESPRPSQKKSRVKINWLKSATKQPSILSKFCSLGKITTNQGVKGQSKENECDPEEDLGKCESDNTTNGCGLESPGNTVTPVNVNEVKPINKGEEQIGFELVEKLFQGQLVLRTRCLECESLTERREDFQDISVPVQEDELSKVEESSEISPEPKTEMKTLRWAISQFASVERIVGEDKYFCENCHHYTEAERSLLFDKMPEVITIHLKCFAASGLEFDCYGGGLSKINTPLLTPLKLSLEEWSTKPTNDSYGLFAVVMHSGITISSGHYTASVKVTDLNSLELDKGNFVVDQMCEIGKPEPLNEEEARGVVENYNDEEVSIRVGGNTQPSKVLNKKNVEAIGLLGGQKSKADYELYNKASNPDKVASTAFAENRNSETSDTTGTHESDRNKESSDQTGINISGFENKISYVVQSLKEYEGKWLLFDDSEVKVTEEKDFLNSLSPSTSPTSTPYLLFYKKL

Target: Ubiquitin carboxyl-terminal hydrolase 1 (Homo sapiens) (UniProt O94782)
Assay: Inhibitors of USP1/UAF1: Primary Screen; further: nearly all actives have a fitted effect of over 60% in size
Conditions: recombinant USP1/UAF1, Ub-Rhodamine cleavage fluorescence; series mostly up to 57.1 µM
In short: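 In this screen, compounds sit with the deubiquitinase complex (1nM) for 15 min at room temperature before Ub-Rho is added at 150nM final. Fluorescence rise is then followed for 6 reads every 60 seconds.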
Potency means the concentration at half of the fitted maximal effect.

Q: With `Cc1ccc(-c2nn(CCC(N)=O)c(=O)c3ccccc23)cc1` as the compound, how does the Potency read?
A: inconclusive: 7.94 µM [inhibitor, full curve]

Q: How did the Potency turn out when `CN(C)CCN(C(=O)c1ccc2ccccc2c1)c1nc2c(F)cccc2s1` was run?
A: inactive

Q: How did the Potency turn out when `COC(=O)c1ccc(-c2ccc(C(c3c(C)[nH][nH]c3=O)c3c(C)[nH][nH]c3=O)o2)cc1` was run?
A: active: 28.2 µM

Q: With `Cc1ccc(COC(=O)Cc2coc3cc(O)ccc23)cc1` as the compound, how does the Potency read?
A: inconclusive: 79.4 µM [inhibitor, partial curve, poor fit]

Q: Which Potency does the source give for `Nc1ccc2c(c1)C(=O)C(=O)c1ccccc1-2` here?
A: active: 1.26 µM

Q: `CCOc1ccc(C(=O)NCc2nc(-c3ccc(Cl)cc3)no2)cc1OCC` was tested. Which Potency did it give?
A: inactive

Q: `COc1ccc(N2CCN(c3cc(C)c4cccc(C)c4n3)CC2)cc1` was tested. Which Potency did it give?
A: inconclusive: 0.631 µM [inhibitor, full curve, poor fit]

Q: `CC(=O)C1=C(C)NC(SCC(=O)c2ccc(F)cc2)=C(C#N)C1c1ccco1` (stereo not drawn) was tested. Which Potency did it give?
A: inactive

Q: For `O=C(c1nnc(Cc2ccc(Cl)cc2)o1)N1CCc2ccccc2C1`, which Potency is on record?
A: inconclusive: 31.6 µM [inhibitor, partial curve]

Q: With `O=C(NCCc1ccccc1)C(=O)c1c(-c2ccccc2)cc2ccccn12` as the compound, how does the Potency read?
A: inactive

Q: How did the Potency turn out when `CCOC(=O)/C(=C/c1c(C)n(C)c2ccc([N+](=O)[O-])cc12)C(C)=O` was run?
A: inconclusive: 35.5 µM [inhibitor, partial curve]

Q: With `N/C(=N\O)c1ccc(N2CCN(c3ncccc3C(F)(F)F)CC2)nc1` as the compound, how does the Potency read?
A: inconclusive: 44.7 µM [inhibitor, single point]

Q: Which Potency does the source give for `CCN(CC)C(=O)Cn1cc(C(=O)C(=O)N2CCc3ccccc32)c2ccccc21` here?
A: inconclusive: 3.55 µM [inhibitor, full curve]

Q: `CCOC(=O)c1[nH]c(C)c(C(=O)NC)c1C` was tested. Which Potency did it give?
A: inactive

Q: How did the Potency turn out when `CCN(CC)C(=O)Cn1cc(C(=O)C(=O)Nc2ccc3c(c2)OCO3)c2ccccc21` was run?
A: inconclusive: 0.251 µM [inhibitor, full curve, poor fit]

Q: With `CC(=O)NC(CC(C)C)C(=O)NC(CO)C(=O)NC(CCC(=O)O)C(=O)NC(C)C(=O)NC(CC(C)C)C(N)=O` (stereo not drawn) (Ac-LSEAL-NH2; configuration not given here) as the compound, how does the Potency read?
A: inconclusive: 50.1 µM [inhibitor, single point]

Q: `COc1ccccc1Nc1ccc2c(O)cc(S(=O)(=O)O)cc2c1` was tested. Which Potency did it give?
A: inconclusive: 17.8 µM [inhibitor, partial curve]

Q: For `O=C1C(=C(c2ccccc2)N2CCOCC2)Cc2ccccc21`, which Potency is on record?
A: inconclusive: 7.08 µM [inhibitor, full curve, poor fit]
